# Primary screen of a compound library

Mtb growth Cornell: 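Whole-cell assay for inhibitors of Mycobacterium tuberculosis growth, labelled Cornell in the record; the read-out is not stated. The concentration is filed as 10 mM, unlikely as a test dose, so the dose is not known. The record gives no direction; compounds strong in two other growth screens of this library score well above the rest, so higher reads as stronger inhibition. Of about 53,000 compounds tested this way, about 900 (1.7%) reached 50% or more in at least one test.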
Mtb heat-shock: 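Assay on Mycobacterium tuberculosis, filed only as a heat shock assay from Cornell; the read-out is not stated. The concentration is filed as 10 mM, unlikely as a test dose, so the dose is not known. Higher reads as stronger inhibition (inferred: compounds with an IC50 in retests scored well above the rest). About 69,000 compounds were tested under these conditions; 1.4% (about 930) showed 50% or more at least once.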

Values are the deposited “Percent Effect”, in %. The record does not define 0% and 100%; most values in the screen are far below 50% and negative numbers occur (in some assays of this library far below -100). Compounds were drawn at random from those tested, without regard to their results. A dash means the value is not listed here; it may have been measured.

With CSCCC(=O)N1CCCN(Cc2cnn(C(C)C)c2)CC1 the screen gave Mtb growth Cornell: -59.63%; Mtb heat-shock: -15.44%. With COc1c(CNC2CCN(C(=O)C(C)C)CC2)c(C(C)C)nn1C the screen gave Mtb growth Cornell: -13.3%; Mtb heat-shock: -35.27%. CCn1cc(CN2CCCN(C(=O)c3ccoc3)CC2)cn1 read Mtb heat-shock: -9.349%. With CC(NCC1(N(C)C)CCOCC1)c1ccc(Cl)cc1 (configuration not stated) the screen gave Mtb growth Cornell: 28.21%; Mtb heat-shock: -22.41%. With O=C(NCc1ccccn1)c1nnn(-c2ccc(Br)cc2)n1 the screen gave Mtb growth Cornell: 19.01%; Mtb heat-shock: -7.893%.

With Cc1ccsc1C(Cc1ccccc1)NC(=O)CSCC(N)=O (configuration not stated) the screen gave Mtb heat-shock: -4.015%. Result for COCCN1CCC2(C1)c1ccccc1S(=O)(=O)N2C.O=C(O)C(F)(F)F (configuration not stated) was Mtb growth Cornell: -14.89%; Mtb heat-shock: 24.71%. O=C(c1cscn1)N1CCC2(CCN(Cc3nccs3)CC2)CC1 read Mtb growth Cornell: 16.3%; Mtb heat-shock: -0.4918%. Cn1ccc(C(=O)N2CCCC(Cc3cccc4ncccc34)C2)n1 (configuration not stated) gave Mtb growth Cornell: -8.91%; Mtb heat-shock: -37.08%. Result for CN(C)c1cc(CNc2ccc(S(=O)(=O)C(C)(C)C)nc2)ccn1 was Mtb heat-shock: -2.137%.

CN(c1ccccc1)S(=O)(=O)c1cc2c(c(C(=O)O)c1)OCCO2 read Mtb growth Cornell: 8.372%; Mtb heat-shock: -2.975%. CCC(=O)Nc1ccc(F)c(S(=O)(=O)NC(C)(C)C)c1 read Mtb growth Cornell: -2.357%; Mtb heat-shock: -24.08%. Cc1cc(F)ccc1S(=O)(=O)NCc1[nH]ncc1Br gave Mtb heat-shock: 25.12%. CCn1nnc2c1C(COCC(=O)N(C)C)CN(Cc1ccoc1)C2 (configuration not stated) read Mtb growth Cornell: 16.37%; Mtb heat-shock: 7.966%. CNCc1cc(C)n(-c2ccccc2OC)c1C gave Mtb growth Cornell: 3.641%; Mtb heat-shock: 39.15%.

CCOCCNC(=O)c1cccc(Cn2nc(C)cc2C)c1 read Mtb growth Cornell: 3.895%; Mtb heat-shock: -10.2%. [H][C@@]12CN(CCOC)C[C@]1([H])[C@@H](OC)CCN2C(=O)c1cccc(OC)c1 read Mtb heat-shock: -19.48%. Result for CNc1ncc(CN(C)C(=O)c2cccc(Cn3cccn3)c2)cn1 was Mtb growth Cornell: -9.731%; Mtb heat-shock: -26.3%. CN(Cc1ccno1)c1nc(C2CCCC2)nc2c1cnn2C gave Mtb growth Cornell: 44.3%; Mtb heat-shock: 22.54%. COc1cccc(CN2CCC(c3nccn3C(C)C)CC2)c1 read Mtb growth Cornell: -38.94%; Mtb heat-shock: -20.99%.

CCN(C)c1ncnc2c1CCN(Cc1nccs1)CC2.O=C(O)C(F)(F)F.O=C(O)C(F)(F)F read Mtb growth Cornell: -15.29%; Mtb heat-shock: -10.05%. Result for Cc1cn2c(n1)CCC(NS(=O)(=O)c1sc(C)nc1C)C2 (configuration not stated) was Mtb heat-shock: -9.082%. O=C(c1cn(-c2ccccc2C(F)(F)F)nn1)N1CCSCC1 gave Mtb growth Cornell: 17.85%; Mtb heat-shock: -7.681%. CCc1ccc(C(=O)N2CCC(c3nncn3CC)CC2)cc1 read Mtb growth Cornell: -9.007%; Mtb heat-shock: -23.87%. CCNC(=O)NC(=O)CSC(C)c1c(F)cccc1F (configuration not stated) gave Mtb growth Cornell: 11.73%; Mtb heat-shock: 12.32%.

Result for CCSc1ncccc1C(=O)NCc1ccc(N(C)C)cc1 was Mtb growth Cornell: 4.638%; Mtb heat-shock: 36.22%. O=C(O)[C@@H]1CN(C(=O)Cc2ccccc2Cl)C[C@H]1C1CC1 read Mtb growth Cornell: -57.33%; Mtb heat-shock: 9.624%. CCCN1CCC(CC(=O)NCc2cc(O)ncn2)CC1 read Mtb heat-shock: -145%. With c1coc(-c2nc(CN3CCCC(Cn4cncn4)C3)cs2)c1 (configuration not stated) the screen gave Mtb heat-shock: -20.68%. CCCN1CCN(C(=O)c2cccnc2-n2cncn2)CC1 read Mtb growth Cornell: -69.83%; Mtb heat-shock: -4.44%.

CN(CC1CCCCO1)c1nncc(-c2cccc(F)c2)n1 (configuration not stated) read Mtb growth Cornell: 31.99%; Mtb heat-shock: 20.16%. For COc1ccc(CN(CCC#N)CCN2CCOCC2)cc1OC the result was Mtb growth Cornell: 9.526%; Mtb heat-shock: -0.616%. With Nc1nnc(CCCNc2ncnc3c2CCN(C(=O)C2CC2)C3)s1 the screen gave Mtb growth Cornell: 6.477%; Mtb heat-shock: 9.023%. For Cc1cnn(CC2CCCN2c2ncnc3c2CCC3)c1 (configuration not stated) the result was Mtb growth Cornell: -32.22%; Mtb heat-shock: -18.11%. O=C(CCc1nccs1)N1CCN(c2cccnn2)CC1 read Mtb heat-shock: -20.48%.

Result for NS(=O)(=O)c1ccc(NCc2ccco2)c2ncccc12 was Mtb growth Cornell: -27.88%; Mtb heat-shock: -31.51%. Result for Cc1ccc(C2CSCCN2C(=O)c2cccnc2)cc1 (configuration not stated) was Mtb growth Cornell: 21.06%; Mtb heat-shock: -0.01232%.

4 of the entries, repeated:

structure,Mtb growth Cornell,Mtb heat-shock
Cc1cnn(CC2CCCN2c2ncnc3c2CCC3)c1 (configuration not stated),-32.22,-18.11
O=C(c1cn(-c2ccccc2C(F)(F)F)nn1)N1CCSCC1,17.85,-7.681
COc1ccc(CN(CCC#N)CCN2CCOCC2)cc1OC,9.526,-0.616
Cc1cc(F)ccc1S(=O)(=O)NCc1[nH]ncc1Br,-,25.12

Measurements from “University of Dundee, Small-Polar-MMV Screening Library” (2021), ChEMBL document CHEMBL3988442.